Measurements reported in the supplement of paper PMC6445147.
This is a noisy data set.

B1: human tRNA-Pro; a variant is named by its letters at N, in order (parent)
chain: GGCTCGTTGGTCTAGNGGTATGATTCTCGCTTAGGGTGCGAGAGGTCCCGGGTTCNNATCCCGGACGAGCCC

Variants of: B1
Assay: tRNA 5' processing efficiency (processed reads / all reads, maximum-likelihood estimate) (fraction); higher = more efficient 5' processing
Conditions: HEK293T; construct: CMV Pol-II promoter ((+)CMV library, decapped)

tRNA 5' processing efficiency, 0.26:
GAT A58G T59A

tRNA 5' processing efficiency, 0.1:
AAT G17T A20G C55A A58C

tRNA 5' processing efficiency, 0.25:
GAG G17C T59G
GAG A14G G17A G18T T19G A20G C55G
GCA G15C G18A A20G T53A
AAG T53A C55T
GAG A14T T19G A20C A58C T59G
GAG T8A A14G G35A
GAT G15T G17C A20C
GCA G17C C55G
GAG A58C T59G
GAT G9T A58G T59G
GAT G2A A14G G15A T19A T54C C55A T59G
TAG G9T T54C A58C
GAT T19G A58C T59C
GAT T8C T19C
GAG T19G C55G T59C
GAG G17T T19G C55T A58G
AAT A14T G18C T19G A20C T59G
GAT G9T G15A G17C
CAT G17A
GAT T19C C55T
GAT G15A G17C A20G C55T
GAG G15C A20C
GCA G9C G15A
GAT T53C
GCA A14C T54G A58G
GAT G15A G17T G18T T54C
GAT A14T A58T T59C
GAT G9C G15A
GAT T54A C55G A58T
CAG T8A G15C
TAG G9C G18C T19A
GAT G15C G17C G18A T54A
GAT A14C A20C T54C A58G
GAT T8G A20T C55A
TAT G15A A58G
GCA A41G
GAG A14T G17T
GAT T8A T53G T54G A58T
GAG G9C G17A A20T T54G C55A
GAT G15T G17T G18T T54G T59C
AAT T8G G17C T53A
GCA G18T A58T
AAT A20G T59C
GCA G15T A58T
GCA C55A A58G
GAG G17A A20C A58C
TAG T8A
GAT G18A A20T A58C
GAG G18T A20G T53C T54G A58C
GAT G18T C55T
TAT G15A G18C
GAT A14G A20G
GCA C55T T59A
GAT A14T T19C A58C
GCA G18A A58C

Seven records picked at random from the list so far:
tRNA 5' processing efficiency, 0.25:
GAG A14G G17A G18T T19G A20G C55G
GAT T8A T53G T54G A58T
GAT T53C
GAG G17C T59G
CAG T8A G15C
GAG G18T A20G T53C T54G A58C
GCA G15T A58T

Following part:

tRNA 5' processing efficiency, 0.58:
GAG T8C G15T G18T

tRNA 5' processing efficiency, 0.38:
GAG C55A

tRNA 5' processing efficiency, 0.08:
ACA G9A A14G G15C G17T A20T C55G

tRNA 5' processing efficiency, 0.33:
GAT G15A T53A C55A
AAG T19A A20T C55A
GAT G17A A58T
GAC T19C T53A T59C
GCA A20T T53C
GAT G15C G18T T54G
GCA G9C T19A C55A
GAG T8G G9T C55G A58G
GAG T19C C55G
GAC T19C A20C C62T
GCA G17C G18A C55G
GAG G9C A14T G15T T19C A20G
TCA G18A
GAT T8G T53A T54C
GAG C55G A58T
GAC T19C T54G C55G
GAT G9T T54A
GAG G9T T54A A58G
CAG T53G
GAT A20G T54G T59G
GAG T8A A14C G17A C55T
CAG A14C G17C T19C
GCA A20G
GAT G9T G18C T53A T54G T59A
GAG G9A G17C A20T
GCA A14C G18C T19C A20G C55T
GAG A14G A58C
GAT T8C A58T
GAG G17T C55T T59G
GCA G9C T19A T59C
GAG A14C G18A C55T A58C

tRNA 5' processing efficiency, 0.43:
GAT G17C A20G C55G
GAT G17A

tRNA 5' processing efficiency, 0.57:
GAT C55A
GAT T8A T59G

tRNA 5' processing efficiency, 0.11:
GAG T8C T59A
GAG T8A T19G A20T T54C T59C
GCA G9T T19A C55G

tRNA 5' processing efficiency, 0.67:
AAG G18A T53G

tRNA 5' processing efficiency, 0.29:
GAG G17T T53G T59A
GAG T54A

tRNA 5' processing efficiency, 0.4:
GAG G15T G18C T19A
AAG G17T
GAT G2A G18A A20G C55A
GAT A20T C55A
AAG G17A G18T C55A
AAG T53G T54A A58T
GAG G17C G18T
GAT A14C T54G
AAG T8G G18T A20G
GAT G18T A20T

tRNA 5' processing efficiency, 0.5:
GAT G9A G17A T19A A20T
GAT T8C G17A T53C
GAG T8G G15C T19G C55G
GAG G17A A20T
GAT G15A T54A C55T
CAT T54G
CAG G18A T19C C55T T59G
GAT G9A A58G T59C
GAG G17T G18T A20T T53C
GAG T8C A14G G15T

tRNA 5' processing efficiency, 0.14:
TAT G15C G17C C55G
ACA G9T G15T T19C A58T
GCA A14G T54C A58G
CAG C55T

tRNA 5' processing efficiency, 0.2:
GAT T8A G17C G18T T54G
GCA A14G G18A T54G C55T
GAT G15C T19G
GAG T19G T53A C55T
GAT G9T G15T
GAT T8G G15T C55G
GAG G9A A14T
GAG G15C T19C C55T
ACA C55T T59C
GAT T8G G51A A58G
GAG G17C G18C
GCA C55T A58C
ACA G18A A20T T53A
GAT G17T T19G C55G
GAT A20T A58C
GCA G9A G15T C55T
GAG T8G G17A G18A A20G T53C
CAG A20T C55T

tRNA 5' processing efficiency, 0.07:
GAT T8C A14T G17T T54A C55G A58T

tRNA 5' processing efficiency, 0.44:
GAG T8G G9A
GAG T8C G17T T19A

tRNA 5' processing efficiency, 0.18:
GAT T8A G9T G17A G18C T54G
GAT T8A G15A T19G
GCA A14T A20T

tRNA 5' processing efficiency, 0.82:
ACA G9A A14G A20G T53G A58C

tRNA 5' processing efficiency, 0.13:
AAG A14C G18C T59A
TCA G17A G18A C55T

tRNA 5' processing efficiency, 0.09:
GAG A14G G17T A58T

tRNA 5' processing efficiency, 0.17:
GAG A14T G15C G17C
TAT C3T G18C G52C C55T
GAG T8G G9C A14C G18T A20C T53A C55T
GAT T8G T54C
GAC T19G T53G T54C
TAT A14T G15T C55G
GAG G9A A58G
GAT G15T G18T T19A A20T
AAG A14G T19C T53C C55T T59G
CAT C55A
GCA A14G G15A
GAG T8C G9A A14T A58T T59A
GCA G17C T59A
GAT G15A T53C C55A A58C
